Amino acid sequences for entries named in this document (tags omitted). A change or cut given only in a name is not applied to a line headed by its entry.
UniProt Q9Y134: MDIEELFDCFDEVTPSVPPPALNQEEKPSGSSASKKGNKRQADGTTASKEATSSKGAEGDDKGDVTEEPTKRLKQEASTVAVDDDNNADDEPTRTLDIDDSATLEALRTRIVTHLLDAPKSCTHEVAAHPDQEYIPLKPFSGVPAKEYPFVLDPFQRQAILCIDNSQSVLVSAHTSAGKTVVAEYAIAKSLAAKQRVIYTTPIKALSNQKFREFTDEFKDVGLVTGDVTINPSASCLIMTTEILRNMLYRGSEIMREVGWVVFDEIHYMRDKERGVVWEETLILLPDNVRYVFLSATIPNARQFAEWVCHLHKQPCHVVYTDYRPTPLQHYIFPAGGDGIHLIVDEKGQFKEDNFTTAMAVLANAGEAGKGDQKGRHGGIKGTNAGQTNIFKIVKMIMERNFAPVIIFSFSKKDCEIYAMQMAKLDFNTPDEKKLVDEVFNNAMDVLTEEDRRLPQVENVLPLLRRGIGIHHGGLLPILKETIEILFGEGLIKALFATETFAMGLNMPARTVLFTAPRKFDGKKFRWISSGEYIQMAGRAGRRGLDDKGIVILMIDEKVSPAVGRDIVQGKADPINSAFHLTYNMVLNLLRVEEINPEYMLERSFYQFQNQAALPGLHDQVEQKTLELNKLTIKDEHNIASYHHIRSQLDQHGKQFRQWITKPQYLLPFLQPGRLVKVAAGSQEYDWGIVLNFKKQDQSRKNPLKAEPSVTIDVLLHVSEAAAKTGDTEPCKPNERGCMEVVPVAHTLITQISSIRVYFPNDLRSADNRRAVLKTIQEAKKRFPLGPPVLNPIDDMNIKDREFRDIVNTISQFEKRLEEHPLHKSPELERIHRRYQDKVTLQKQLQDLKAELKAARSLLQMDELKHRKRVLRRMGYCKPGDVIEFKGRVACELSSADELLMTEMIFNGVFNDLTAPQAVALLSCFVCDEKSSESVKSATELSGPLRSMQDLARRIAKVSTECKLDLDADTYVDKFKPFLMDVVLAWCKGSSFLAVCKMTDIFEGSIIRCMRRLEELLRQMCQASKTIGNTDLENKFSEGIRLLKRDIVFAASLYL
UniProt Q8SWX0: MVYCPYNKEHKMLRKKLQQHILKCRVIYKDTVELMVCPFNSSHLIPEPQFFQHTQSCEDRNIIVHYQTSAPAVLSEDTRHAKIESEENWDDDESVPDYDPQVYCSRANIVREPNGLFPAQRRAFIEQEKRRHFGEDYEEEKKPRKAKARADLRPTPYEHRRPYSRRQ
UniProt Q9W3W6: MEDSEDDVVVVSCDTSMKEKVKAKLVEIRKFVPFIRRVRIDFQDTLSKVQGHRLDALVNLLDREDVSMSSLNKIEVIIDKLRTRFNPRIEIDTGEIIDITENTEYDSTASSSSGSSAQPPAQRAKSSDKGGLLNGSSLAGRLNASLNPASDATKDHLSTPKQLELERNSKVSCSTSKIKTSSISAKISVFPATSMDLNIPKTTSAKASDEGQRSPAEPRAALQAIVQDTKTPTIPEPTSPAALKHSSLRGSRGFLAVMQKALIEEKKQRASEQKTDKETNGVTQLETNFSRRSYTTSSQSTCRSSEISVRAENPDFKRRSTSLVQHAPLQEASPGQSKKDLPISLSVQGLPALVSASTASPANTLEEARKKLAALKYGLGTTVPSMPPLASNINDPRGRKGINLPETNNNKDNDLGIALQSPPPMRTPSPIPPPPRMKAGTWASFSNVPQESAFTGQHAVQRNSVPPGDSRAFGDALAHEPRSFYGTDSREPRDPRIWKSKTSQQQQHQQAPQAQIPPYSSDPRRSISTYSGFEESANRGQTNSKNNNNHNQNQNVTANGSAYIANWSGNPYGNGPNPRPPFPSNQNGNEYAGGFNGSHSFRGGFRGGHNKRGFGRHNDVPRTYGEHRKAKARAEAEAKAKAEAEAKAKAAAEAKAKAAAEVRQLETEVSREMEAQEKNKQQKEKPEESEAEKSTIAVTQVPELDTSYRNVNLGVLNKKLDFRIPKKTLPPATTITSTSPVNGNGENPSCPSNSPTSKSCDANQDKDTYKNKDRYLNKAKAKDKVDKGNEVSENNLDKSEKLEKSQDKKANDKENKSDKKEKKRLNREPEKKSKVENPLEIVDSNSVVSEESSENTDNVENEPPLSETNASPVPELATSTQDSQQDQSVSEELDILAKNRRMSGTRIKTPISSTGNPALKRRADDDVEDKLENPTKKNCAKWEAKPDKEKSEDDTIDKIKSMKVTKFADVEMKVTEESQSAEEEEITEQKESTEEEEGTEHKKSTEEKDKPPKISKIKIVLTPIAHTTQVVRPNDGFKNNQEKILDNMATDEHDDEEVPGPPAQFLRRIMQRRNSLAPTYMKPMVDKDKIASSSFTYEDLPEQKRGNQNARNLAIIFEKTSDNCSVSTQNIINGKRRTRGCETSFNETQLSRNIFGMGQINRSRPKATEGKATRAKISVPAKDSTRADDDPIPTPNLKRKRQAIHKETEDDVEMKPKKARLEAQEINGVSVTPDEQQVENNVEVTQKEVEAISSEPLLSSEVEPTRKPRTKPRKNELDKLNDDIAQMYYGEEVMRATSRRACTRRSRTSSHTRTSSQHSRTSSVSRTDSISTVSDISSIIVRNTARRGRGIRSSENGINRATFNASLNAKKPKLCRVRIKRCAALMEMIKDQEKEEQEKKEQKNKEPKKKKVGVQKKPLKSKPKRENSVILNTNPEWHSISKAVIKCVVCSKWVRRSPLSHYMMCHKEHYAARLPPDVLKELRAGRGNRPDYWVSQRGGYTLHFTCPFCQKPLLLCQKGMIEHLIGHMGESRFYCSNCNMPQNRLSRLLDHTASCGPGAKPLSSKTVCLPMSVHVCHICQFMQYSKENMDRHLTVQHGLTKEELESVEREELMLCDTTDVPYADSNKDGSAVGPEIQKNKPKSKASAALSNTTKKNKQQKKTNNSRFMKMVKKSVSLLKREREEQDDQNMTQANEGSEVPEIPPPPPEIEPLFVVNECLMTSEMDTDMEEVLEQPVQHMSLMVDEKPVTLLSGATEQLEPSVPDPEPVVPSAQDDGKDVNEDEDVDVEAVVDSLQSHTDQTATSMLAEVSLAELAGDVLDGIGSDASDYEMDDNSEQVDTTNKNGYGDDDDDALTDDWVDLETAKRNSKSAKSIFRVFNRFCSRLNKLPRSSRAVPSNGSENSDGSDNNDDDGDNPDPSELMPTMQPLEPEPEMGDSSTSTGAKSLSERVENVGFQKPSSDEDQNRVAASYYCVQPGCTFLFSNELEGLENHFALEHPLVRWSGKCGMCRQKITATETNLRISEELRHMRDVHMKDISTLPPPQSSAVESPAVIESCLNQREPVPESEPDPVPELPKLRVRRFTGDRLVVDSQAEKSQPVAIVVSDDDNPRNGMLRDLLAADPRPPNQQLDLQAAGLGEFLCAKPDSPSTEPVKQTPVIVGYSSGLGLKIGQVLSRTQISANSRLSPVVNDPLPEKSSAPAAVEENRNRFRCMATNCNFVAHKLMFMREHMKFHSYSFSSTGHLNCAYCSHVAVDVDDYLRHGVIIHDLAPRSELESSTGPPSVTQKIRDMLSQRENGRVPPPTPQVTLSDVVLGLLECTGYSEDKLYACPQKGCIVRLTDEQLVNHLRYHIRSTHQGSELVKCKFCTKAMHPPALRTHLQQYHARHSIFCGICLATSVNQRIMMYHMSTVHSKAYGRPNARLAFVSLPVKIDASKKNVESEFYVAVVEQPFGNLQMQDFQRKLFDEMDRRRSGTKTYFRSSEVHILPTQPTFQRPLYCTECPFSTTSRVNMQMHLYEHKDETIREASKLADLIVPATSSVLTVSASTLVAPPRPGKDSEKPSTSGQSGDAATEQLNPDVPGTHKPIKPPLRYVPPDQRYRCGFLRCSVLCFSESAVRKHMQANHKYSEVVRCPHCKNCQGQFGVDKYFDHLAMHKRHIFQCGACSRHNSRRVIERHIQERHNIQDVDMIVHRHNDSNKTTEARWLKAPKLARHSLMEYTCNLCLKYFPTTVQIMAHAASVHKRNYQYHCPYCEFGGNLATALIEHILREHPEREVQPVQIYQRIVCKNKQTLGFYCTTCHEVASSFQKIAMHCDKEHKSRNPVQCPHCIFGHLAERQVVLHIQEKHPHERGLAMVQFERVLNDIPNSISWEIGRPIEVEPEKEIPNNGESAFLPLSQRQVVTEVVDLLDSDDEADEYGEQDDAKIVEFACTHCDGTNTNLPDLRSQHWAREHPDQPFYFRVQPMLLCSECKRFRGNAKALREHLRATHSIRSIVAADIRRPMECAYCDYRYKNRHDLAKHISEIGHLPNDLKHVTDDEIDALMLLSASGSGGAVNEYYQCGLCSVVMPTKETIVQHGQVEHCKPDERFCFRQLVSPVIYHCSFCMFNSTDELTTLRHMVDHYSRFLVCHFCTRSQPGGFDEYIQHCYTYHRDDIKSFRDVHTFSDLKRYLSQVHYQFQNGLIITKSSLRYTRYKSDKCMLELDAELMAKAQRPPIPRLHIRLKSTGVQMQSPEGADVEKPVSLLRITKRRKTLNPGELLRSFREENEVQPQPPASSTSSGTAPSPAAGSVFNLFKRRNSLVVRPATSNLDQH

According to doi:10.64898/2025.12.16.694471:

Tests used:
[1] = target: 3xFLAG-TurboID-TEsup-1 (Drosophila melanogaster (endogenous in OSCs)) (UniProt Q9VBX4); test: proximity labelling
[2] = target: T1, 3xFLAG-TurboID-TEsup-2 (Drosophila melanogaster (endogenous in OSCs)) (UniProt Q7YZA2); test: proximity labelling
T1 sequence: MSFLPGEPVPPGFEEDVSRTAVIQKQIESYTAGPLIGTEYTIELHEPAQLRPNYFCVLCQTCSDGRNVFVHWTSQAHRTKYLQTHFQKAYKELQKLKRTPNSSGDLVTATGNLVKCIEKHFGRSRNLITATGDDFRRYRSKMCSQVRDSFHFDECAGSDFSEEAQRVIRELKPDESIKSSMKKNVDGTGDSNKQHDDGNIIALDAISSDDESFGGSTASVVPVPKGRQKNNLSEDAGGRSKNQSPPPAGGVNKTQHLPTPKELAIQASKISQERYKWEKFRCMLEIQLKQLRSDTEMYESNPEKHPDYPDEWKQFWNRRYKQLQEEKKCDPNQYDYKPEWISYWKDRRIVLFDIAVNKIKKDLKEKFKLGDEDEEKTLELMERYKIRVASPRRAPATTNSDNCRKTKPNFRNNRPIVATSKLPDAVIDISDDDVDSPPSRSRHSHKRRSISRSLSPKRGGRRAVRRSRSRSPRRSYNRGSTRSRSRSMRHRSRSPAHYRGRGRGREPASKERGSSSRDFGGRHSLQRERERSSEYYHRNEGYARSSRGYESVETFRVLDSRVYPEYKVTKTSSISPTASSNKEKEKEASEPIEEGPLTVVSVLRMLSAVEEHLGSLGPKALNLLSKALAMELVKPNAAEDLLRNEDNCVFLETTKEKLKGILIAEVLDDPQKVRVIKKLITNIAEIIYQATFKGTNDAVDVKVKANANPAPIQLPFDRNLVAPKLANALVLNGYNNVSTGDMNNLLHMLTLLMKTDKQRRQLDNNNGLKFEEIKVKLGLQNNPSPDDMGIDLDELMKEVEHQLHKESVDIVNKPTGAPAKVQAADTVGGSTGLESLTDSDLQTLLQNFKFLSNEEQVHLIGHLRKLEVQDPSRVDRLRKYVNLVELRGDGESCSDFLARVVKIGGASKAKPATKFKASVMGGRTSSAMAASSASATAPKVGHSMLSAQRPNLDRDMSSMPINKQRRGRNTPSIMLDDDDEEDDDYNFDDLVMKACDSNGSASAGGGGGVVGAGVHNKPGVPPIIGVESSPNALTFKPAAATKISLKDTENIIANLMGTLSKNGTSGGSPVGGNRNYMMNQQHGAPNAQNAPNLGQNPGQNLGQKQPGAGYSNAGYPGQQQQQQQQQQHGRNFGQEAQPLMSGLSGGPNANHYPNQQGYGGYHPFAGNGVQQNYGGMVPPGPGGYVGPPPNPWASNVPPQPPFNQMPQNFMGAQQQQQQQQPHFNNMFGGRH

[3] = target: T2, 3xFLAG-V5-GFP-TEsup-2 (Drosophila melanogaster (endogenous in OSCs)) (UniProt Q7YZA2); test: affinity purification with mass spectrometry
T2 sequence: T1 sequence

[4] = target: 3xFLAG-V5-GFP-TEsup-1 (Drosophila melanogaster (endogenous in OSCs)) (UniProt Q9VBX4); test: affinity purification with mass spectrometry
[5] = target: Mtr4-dTAG-V5-3xFLAG (Drosophila melanogaster (endogenous in OSCs)) (UniProt Q9Y134); test: affinity purification with mass spectrometry
[6] = target: T3, dZcchc8-GFP-V5-3xFLAG (Drosophila melanogaster (endogenous in OSCs)) (UniProt Q2PE14); test: affinity purification with mass spectrometry
T3 sequence: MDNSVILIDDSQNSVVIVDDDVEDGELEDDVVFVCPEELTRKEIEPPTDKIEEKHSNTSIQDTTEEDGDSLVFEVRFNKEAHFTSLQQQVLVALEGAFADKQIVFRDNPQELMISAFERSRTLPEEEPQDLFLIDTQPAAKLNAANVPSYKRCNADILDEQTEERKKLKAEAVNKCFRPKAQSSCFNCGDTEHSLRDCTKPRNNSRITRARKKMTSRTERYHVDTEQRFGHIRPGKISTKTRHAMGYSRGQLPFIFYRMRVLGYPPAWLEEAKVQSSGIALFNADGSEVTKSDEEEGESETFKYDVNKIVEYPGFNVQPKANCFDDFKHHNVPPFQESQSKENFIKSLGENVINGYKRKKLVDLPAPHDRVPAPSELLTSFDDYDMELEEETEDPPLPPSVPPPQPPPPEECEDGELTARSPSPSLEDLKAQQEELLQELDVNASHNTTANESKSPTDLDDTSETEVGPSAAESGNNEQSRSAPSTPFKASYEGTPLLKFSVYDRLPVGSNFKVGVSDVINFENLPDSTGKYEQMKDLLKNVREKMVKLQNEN

[7] = target: 3xFLAG-V5-GFP-dZfc3h1 (Drosophila melanogaster (endogenous in OSCs and ovaries)) (UniProt Q9W238); test: affinity purification with mass spectrometry
[8] = target: T4, FLAG-Maelstrom (Drosophila melanogaster) (UniProt Q9VNS0); test: affinity purification with mass spectrometry
T4 sequence: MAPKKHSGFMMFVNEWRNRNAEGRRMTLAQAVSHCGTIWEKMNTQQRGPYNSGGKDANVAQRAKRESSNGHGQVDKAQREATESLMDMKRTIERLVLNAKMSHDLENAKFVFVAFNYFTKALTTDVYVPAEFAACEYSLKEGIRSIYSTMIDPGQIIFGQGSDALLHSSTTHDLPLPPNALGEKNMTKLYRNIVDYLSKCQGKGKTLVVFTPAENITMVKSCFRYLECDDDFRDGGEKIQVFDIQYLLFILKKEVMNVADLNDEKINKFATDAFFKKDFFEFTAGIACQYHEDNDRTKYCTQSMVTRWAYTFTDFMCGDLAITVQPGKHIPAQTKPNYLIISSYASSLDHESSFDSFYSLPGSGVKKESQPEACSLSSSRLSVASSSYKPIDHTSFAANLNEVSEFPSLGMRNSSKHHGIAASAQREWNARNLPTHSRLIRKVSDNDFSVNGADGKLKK

[9] = target: FLAG-Asterix/Gtsf1 (Drosophila melanogaster) (UniProt Q8SWX0); test: affinity purification with mass spectrometry
[10] = target: 3xFLAG-V5-GFP-dZfc3h1 (Drosophila melanogaster (endogenous in OSCs and ovaries)) (UniProt Q9W238); test: affinity purification with mass spectrometry; remark: listed apart in the source
[11] = target: His10-FLAG-GFP-3C-V5 fused TEsup-1 PRD (aa 702-820) (Drosophila melanogaster) (UniProt Q9VBX4); test: affinity purification with mass spectrometry

Measured: binding

Asterix/Gtsf1 (from UniProt Q8SWX0)
binds: [1] | [2] | [3] | [4] | [5] | [6]

NEXT-specific RNA-binding protein dRbm7 (CG11454) (from UniProt Q9VPK4)
binds: [6]

RNA helicase Mtr4 (enzyme)
binds: [6]

Sov (from UniProt Q9W3W6)
binds: [1] | [4]

TEs are up-1 (TEsup-1; CG31510) (from UniProt Q9VBX4)
not listed: [1] | [4] | [11]
binds: all other assays above

dZcchc7 (from UniProt Q9VVA9)
binds: [1] | [2] | [3] | [4] | [11] | [5]

dZfc3h1 (CG4294) (from UniProt Q9W238)
binds: [1] | [2] | [3] | [4] | [11] | [5]

Like-named read-outs stand apart in the source and are kept apart here. Results are given in words; binding and its absence hold for the method and conditions named. In cells and extracts the contact can be indirect. These calls come from enrichment with a bait or labelling near it, and not all partners need be listed. For part of these data: Where a sequence is shown, tags or fusion partners need not be part of it.
